PubChem BioAssay AID1259424 | University of Nebraska Medical Center – 2018
Assay: 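Seek colon cancer survival genes behaving like KSR1, using a six-gene signature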 (primary screen). System: human HCT116 colon cancer cells. Knock-down reagent: siRNA pool against human genes, 50 nM. Measured: 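Six signature mRNAs by branched-DNA multiplex assay, scaled to two housekeeping genes and non-targeting median, log2; matched to mean KSR1 knockdown profile by Pearson correlation and euclidean distance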. Reading the numbers: mean correlation with KSR1 profile and KSR1 correlation: higher = expression change more like KSR1 knockdown; mean distance from KSR1 profile: higher = expression change less like KSR1 knockdown.
Shown is one part, drawn at random, of about 14,000 reagents. 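Higher correlation or smaller distance means closer resemblance to KSR1 loss; control wells, including KSR1 knockdowns, recur on many plates.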 Reagents against one gene are numbered here. Some reagents were tested in more than one well and are listed for each. Not given: the time to read-out.

gene | pool no. | mean correlation with KSR1 profile | mean distance from KSR1 profile | KSR1 correlation, replicate 1 | KSR1 correlation, replicate 2 | KSR1 correlation, replicate 3
OXSR1 (GeneID 9943) | 1 | 0.235 | 1.79 | 0.663 | 0.271 | -0.0284
KRABD3 (GeneID 84626) | 1 | 0.587 | 2.56 | 0.696 | 0.492 | 0.202
TRIM13 (GeneID 10206) | 1 | 0.337 | 1.27 | -0.0471 | 0.363 | 0.458
GSK3B (GeneID 2932) | 1 | 0.782 | 1.32 | 0.672 | 0.72 | 0.782
OPN1LW (GeneID 5956) | 1 | 0.351 | 3.41 | 0.509 | 0.427 | 0.356
PLEKHA8 (GeneID 84725) | 1 | -0.0631 | 2.79 | -0.101 | -0.26 | -0.0503
FABP5 (GeneID 2171) | 1 | -0.0247 | 1.34 | 0.0178 | -0.261 | 0.0553
TIAM2 (GeneID 26230) | 1 | -0.443 | 2.57 | -0.237 | -0.399 | -0.57
TIAM2 (GeneID 26230) | 1 | -0.729 | 2.8 | -0.684 | -0.772 | -0.621
AURKA (GeneID 6790) | 1 | 0.0347 | 2.62 | -0.00159 | 0.0417 | 0.0236
NFATC2IP (GeneID 84901) | 1 | 0.0254 | 3.84 | -0.0508 | 0.16 | -0.245
PSMD10 (GeneID 5716) | 1 | -0.285 | 3 | -0.0378 | -0.486 | -0.233
MTPAP (GeneID 55149) | 1 | 0.721 | 1.47 | 0.691 | 0.452 | 0.661
TAF1L (GeneID 138474) | 1 | 0.523 | 1.3 | 0.687 | 0.581 | 0.223
MECOM (GeneID 2122) | 1 | 0.617 | 0.952 | 0.724 | 0.772 | 0.42
MECOM (GeneID 2122) | 2 | 0.267 | 3.09 | 0.442 | 0.0519 | 0.258
HMGN4 (GeneID 10473) | 1 | -0.126 | 2.67 | -0.135 | -0.361 | -0.23
BPHL (GeneID 670) | 1 | 0.0813 | 2.21 | -0.109 | 0.392 | 0.0816
RHOF (GeneID 54509) | 1 | -0.443 | 2.56 | -0.451 | -0.284 | -0.708
HSD11B2 (GeneID 3291) | 1 | 0.223 | 2.71 | 0.32 | 0.129 | 0.142
MON2 (GeneID 23041) | 1 | -0.0466 | 1.23 | -0.144 | 0.104 | -0.0593
SUV39H1 (GeneID 6839) | 1 | 0.158 | 1.67 | -0.1 | 0.206 | 0.302
NKX2-1 (GeneID 7080) | 1 | 0.0941 | 1.89 | 0.263 | 0.507 | -0.0274
INHBB (GeneID 3625) | 1 | -0.142 | 1.92 | -0.181 | -0.0741 | -0.152
TNFRSF9 (GeneID 3604) | 1 | -0.81 | 2.52 | -0.769 | -0.706 | -0.86
LRRC8B (GeneID 23507) | 1 | -0.711 | 2.3 | -0.772 | -0.325 | -0.794
MICAL3 (GeneID 57553) | 1 | -0.61 | 2.92 | -0.587 | -0.641 | -0.538
MICAL3 (GeneID 57553) | 2 | -0.446 | 4.09 | -0.2 | -0.758 | -0.346
AEBP2 (GeneID 121536) | 1 | -0.38 | 2.18 | -0.253 | -0.165 | -0.541
GAGE5 (GeneID 2577) | 1 | 0.00581 | 3.09 | 0.0735 | -0.267 | -0.00429
RAC2 (GeneID 5880) | 1 | -0.246 | 3.74 | -0.294 | -0.281 | -0.226
SERGEF (GeneID 26297) | 1 | -0.216 | 2.21 | 0.104 | -0.323 | -0.596
ADRA1D (GeneID 146) | 1 | 0.82 | 1.59 | 0.866 | 0.78 | 0.824
CMC2 (GeneID 56942) | 1 | -0.0473 | 1.91 | -0.112 | 0.0433 | -0.0149
ASCC3 (GeneID 10973) | 1 | -0.548 | 2.45 | -0.542 | -0.702 | -0.305
ASCC3 (GeneID 10973) | 2 | -0.477 | 6.54 | -0.323 | -0.342 | -0.293
CBLL1 (GeneID 79872) | 1 | 0.557 | 4.11 | 0.504 | 0.633 | 0.535
LLGL2 (GeneID 3993) | 1 | -0.275 | 3.72 | -0.333 | -0.348 | -0.301
S100A5 (GeneID 6276) | 1 | -0.438 | 3.03 | -0.526 | -0.434 | -0.344
C9orf40 (GeneID 55071) | 1 | -0.606 | 2.82 | -0.627 | -0.571 | -0.564
ZNF587 (GeneID 84914) | 1 | -0.0851 | 2.26 | -0.162 | -0.0797 | -0.181
MAP2K2 (GeneID 5605) | 1 | 0.613 | 1.88 | 0.606 | 0.668 | 0.601
DBT (GeneID 1629) | 1 | 0.391 | 1.36 | 0.262 | 0.481 | 0.327
ARHGAP24 (GeneID 83478) | 1 | 0.482 | 1.9 | 0.349 | 0.451 | 0.446
TPPP3 (GeneID 51673) | 1 | -0.217 | 7.85 | -0.0933 | 0.0236 | 0.118
FAM117A (GeneID 81558) | 1 | 0.341 | 2.27 | 0.237 | 0.132 | 0.344
MRC2 (GeneID 9902) | 1 | 0.123 | 2.95 | 0.0327 | 0.419 | 0.0414
TLE5 (GeneID 166) | 1 | -0.467 | 2.15 | -0.12 | 0.0229 | -0.743
STK16 (GeneID 8576) | 1 | -0.346 | 2.24 | -0.1 | -0.678 | -0.333
ARL14 (GeneID 80117) | 1 | -0.13 | 2.03 | -0.0757 | -0.629 | 0.173

Only “KSR1 correlation, replicate 3” (4 entries from above):
BPHL (GeneID 670)	0.0816
RHOF (GeneID 54509)	-0.708
HSD11B2 (GeneID 3291)	0.142
MON2 (GeneID 23041)	-0.0593
